# Reference: EP0989136A1 (KYOWA HAKKO KOGYO CO., LTD., priority 1997, dated 1998)
# Columns and labels:
# [1] = general procedure: Fmoc solid-phase peptide synthesis; Wang resin; Rink Amide MBHA resin; 2-chlorotritylchloride resin; Rink Amide TGR resin; PyBOP/HOBt/NMM; HBTU/HOBt/DIEA; conditions: whole synthesis
# [2] = general procedure: Fmoc solid-phase peptide synthesis; Rink Amide MBHA resin; PyBOP/HOBt/NMM; HBTU/HOBt/DIEA; conditions: whole synthesis
# [3] = general procedure: Fmoc solid-phase peptide synthesis; Wang resin; PyBOP/HOBt/NMM; HBTU/HOBt/DIEA; conditions: whole synthesis, scale 18 umol
# [4] = general procedure: Fmoc solid-phase peptide synthesis; Rink Amide TGR resin; PyBOP/HOBt/NMM; HBTU/HOBt/DIEA; conditions: whole synthesis, scale 20 umol
substance,measurement,setting,value
"PEPTIDE1{C.L.K.S.K.K.Q.S.T.S.R.H.K.K.L.C}$PEPTIDE1,PEPTIDE1,1:R3-16:R3$$$V2.0",crude mass,[1]; scale 25 umol,64.5 mg
same,isolated mass,[1]; scale 25 umol,14.1 mg
"PEPTIDE1{C.L.K.S.K.K.G.Q.S.T.S.R.H.K.K.L.C.[Add].[am]}$PEPTIDE1,PEPTIDE1,1:R3-17:R3$$$V2.0",crude mass,[2]; scale 16.5 umol,44.6 mg
same,isolated mass,[2]; scale 16.5 umol,11.2 mg
PEPTIDE1{K.S.K.K.G.Q.S.T.S.R.H.K.K}$$$$V2.0,crude mass,[1]; scale 18.3 umol,42.7 mg
same,isolated mass,[1]; scale 18.3 umol,14.1 mg
"PEPTIDE1{L.K.C.K.K.G.Q.S.T.C.R.H.K.K.L.[am]}$PEPTIDE1,PEPTIDE1,3:R3-10:R3$$$V2.0",crude mass,[2]; scale 22 umol,54.6 mg
same,isolated mass,[2]; scale 22 umol,7.0 mg
"PEPTIDE1{[ac].C.L.K.S.K.K.G.Q.S.T.S.R.H.K.K.L.C.[am]}$PEPTIDE1,PEPTIDE1,2:R3-18:R3$$$V2.0",crude mass,[2]; scale 16.5 umol,37.1 mg
same,isolated mass,[2]; scale 16.5 umol,4.5 mg
PEPTIDE1{L.K.S.K.K.G.Q.S.T.S.R.H.K.K.L}$$$$V2.0,crude mass,[3],51.8 mg
same,isolated mass,[3],21.9 mg
"PEPTIDE1{[CH2CO].L.K.S.K.K.G.Q.S.T.S.R.H.K.K.L.C.[am]}$PEPTIDE1,PEPTIDE1,1:R3-17:R3$$$V2.0",crude mass,[2]; scale 27.5 umol,50.7 mg
same,isolated mass,[2]; scale 27.5 umol,4.2 mg
"PEPTIDE1{C.L.K.S.K.K.G.Q.S.T.C.R.H.K.K.L.[am]}$PEPTIDE1,PEPTIDE1,1:R3-11:R3$$$V2.0",crude mass,[2]; scale 22 umol,57.8 mg
same,isolated mass,[2]; scale 22 umol,2.3 mg
"PEPTIDE1{C.L.K.S.K.K.G.Q.S.T.S.R.H.K.K.L.C}$PEPTIDE1,PEPTIDE1,1:R3-17:R3$$$V2.0",crude mass,[1]; scale 25 umol,68.5 mg
same,isolated mass,[1]; scale 25 umol,12.7 mg
"PEPTIDE1{L.K.D.K.K.G.Q.S.T.S.R.H.K.K.L.[am]}$PEPTIDE1,PEPTIDE1,3:R3-13:R3$$$V2.0",crude mass,[4],60.4 mg
same,isolated mass,[4],1.8 mg
"PEPTIDE1{L.K.C.K.K.G.Q.S.T.S.R.H.K.K.L.C.[am]}$PEPTIDE1,PEPTIDE1,3:R3-16:R3$$$V2.0",crude mass,[2]; scale 22 umol,55.7 mg
same,isolated mass,[2]; scale 22 umol,10.1 mg
PEPTIDE1{K.K.G.Q.S.T.S.R.H.K.K}$$$$V2.0,crude mass,[1]; scale 30.5 umol,54.4 mg
same,isolated mass,[1]; scale 30.5 umol,41.4 mg
"PEPTIDE1{C.L.K.S.K.K.G.Q.S.T.S.R.H.K.K.L.C.[am]}$PEPTIDE1,PEPTIDE1,1:R3-17:R3$$$V2.0",crude mass,[2]; scale 16.5 umol,35.8 mg
same,isolated mass,[2]; scale 16.5 umol,3.5 mg

# Some peptides are written in HELM: one residue between dots, names in brackets for other building blocks, links after the first $.
